Measured values from patent US20070208074A1, “Methods and compositions for treating and preventing tumors” (priority 2006, published 2007).
At least one structure is not confirmed: it was looked up by name or label, or the drawing left a doubt.

System: PTEN−/− astrocytes
Assay: LIFRβ immunoblot of PTEN−/− astrocytes treated with PI3K inhibitor
Assay type: cell-based, mouse
Settings: serum-starved PTEN−/− astrocytes, LY294002 vs DMSO vehicle, 48 hours

O=c1cc(N2CCOCC2)oc2c(-c3ccccc3)cccc12 [LY294002]
LIFRβ expression: restored LIFRβ expression
